PubChem BioAssay AID504786 – Drosophila RNAi Screening Center | 2011
Test: 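Positive regulators of HIF-driven reporter output in Drosophila cells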 (primary screen). Cell system: Drosophila S2 cells with a stable HIF luciferase reporter. Knock-down reagent: long dsRNA against Drosophila genes, about 0.2 µg dsRNA per well of a 384-well plate. Timing: three days of knock-down, then 20 h of DFO before reading. Conditions: desferrioxamine (DFO) at 100 µM, an iron chelator that mimics hypoxia, for 20 h. Measured: 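HIF reporter luminescence in cells given 100 µM DFO for 20 h, using the mouse ldh-a hypoxia-response element, scored as per-plate z-scores; higher means greater loss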. Direction: z-score: higher = stronger loss of HIF reporter signal.
The screen tested about 21,000 reagents; this is an unselected part of those with a known target gene and a result. 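Primary screen; positive scores mean lost reporter signal, so the sign may be inverted from the usual convention.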 Reagents against one gene are numbered here. Names joined by + are all predicted targets of the reagent. Further read-outs or replicates are left out here.

no.	target gene	reagent	z-score, replicate 1	z-score, replicate 2	z-score, replicate 3
1	CG14606	1	-0.2	0.7	
2	cv-c (crossveinless c)	1	-0.2	-0.3	
3	cv-c (crossveinless c)	2	-0.3	-0.5	
4	cv-c (crossveinless c)	3	-0.3	-0.1	
5	cv-c (crossveinless c)	4	-0.1	0.1	
6	cv-c (crossveinless c)	5	-0.4	-0.8	
7	cv-c (crossveinless c)	6	-0.3	1	
8	CG15919	1	-0.7	-0.4	
9	PIG-H (Phosphatidylinositol glycan anchor biosynthesis class H)	1	-0.3	-0.3	
10	CG12347	1	-0.1	0.6	
11	CG5302 (retired record)	1	-0.4	0	
12	CG5302 (retired record)	2	-0.5	-0.4	
13	egh (egghead)	1	-0.4	0.9	
14	Grip75	1	-0.3	-0.2	
15	mas (masquerade)	1	-0.3	-0.2	
16	nab	1	-0.3	-0.4	
17	nab	2	0.1	-0.7	
18	pasi2 (pasiflora 2)	1	-0.4	0.3	
19	Khc (Kinesin heavy chain)	1	-0.3	-0.6	
20	ND-ASHI (NADH dehydrogenase (ubiquinone) ASHI subunit)	1	-0.2	-0.7	
21	CG12164	1	-0.3	-0.3	
22	Ranbp16	1	-0.4	-0.7	
23	CG9875	1	-0.3	-0.5	

In a second layout: entries from further up
{"target gene":"nab","reagent":1,"z-score, replicate 1":-0.3,"z-score, replicate 2":-0.4}
{"target gene":"nab","reagent":2,"z-score, replicate 1":0.1,"z-score, replicate 2":-0.7}

The listing continues.
no.	target gene	reagent	z-score, replicate 1	z-score, replicate 2	z-score, replicate 3
24	CG11997	1	-0.1	0.2	
25	CG16723	1	0	1.9	
26	CG15200	1	-0.3	-0.2	
27	vih (vihar)	1	0	1.1	
28	dgt5 (dim gamma-tubulin 5)	1	-0.2	-0.3	
29	CG3165	1	-0.3	-0.5	
30	CG42539 (retired record)	1	-0.3	-0.3	
31	CG13297	1	-0.3	-0.5	
32	COX3 (retired record)	1	-0.4	0.2	
33	CG15147	1	-0.2	-0.3	-0.8
34	CG15147	2	-0.2	-0.1	
35	CG34281	1	-0.3	0.2	
36	ATPsynCF6L (ATP synthase, coupling factor 6-like)	1	-0.3	-0.4	
37	CG5556	1	0	-0.5	
38	Pstk + Tim9b	1	-0.3	-0.3	
39	Pstk + Tim9b	2	-0.3	-0.4	
40	nAChRalpha1 (nicotinic Acetylcholine Receptor alpha1)	1	0.1	-0.3	
41	nAChRalpha1 (nicotinic Acetylcholine Receptor alpha1)	2	8.1	3.3	
42	nAChRalpha1 (nicotinic Acetylcholine Receptor alpha1)	3	-0.4	-0.4	
43	nAChRalpha1 (nicotinic Acetylcholine Receptor alpha1)	4	-0.5	-0.2	
44	CG13840	1	-0.8	-0.8	
45	lic (licorne)	1	1.1	0.3	
46	Rlip (Ral interacting protein)	1	-0.5	0.2	
47	Rab1	1	1.2	0.7	
48	CG4496	1	-0.4	-0.3	
49	Elp6 (Elongator complex protein 6)	1	1.6	0.3	
50	CG12991	1	-0.2	-0.3	
51	CG3565	1	-0.3	-0.5	
52	prd (paired)	1	-0.3	-0.2	
53	CG32679	1	-0.2	-0.3	
54	AcCoAS (Acetyl Coenzyme A synthase)	1	-0.1	-0.7	-1
55	AcCoAS (Acetyl Coenzyme A synthase)	2	-0.3	-0.3	
56	CG4949	1	-0.1	-0.3	
